Measurements reported in PubChem BioAssay AID1259425 (University of Nebraska Medical Center, 2018)

- Aim: 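Find knockdowns that reproduce the gene expression pattern seen when KSR1 is lost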 (primary screen)
- Cells: HCT116 human colon cancer cells
- Reagent: siRNA pool against human genes, 50 nM siRNA
- Read-out: 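After 50 nM siRNA pool, branched-DNA assay measures six marker transcripts per well, minus blank, normalised to the geometric mean of two housekeeping transcripts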
- Scale: BNIP3L mRNA: higher = more BNIP3L transcript after knockdown
This is an unselected part of about 14,000 deposited reagents. Further read-outs or replicates are left out here. Not given: the time to read-out.

With knock-down of AP3M2 (adaptor related protein complex 3 subunit mu 2), the screen gave BNIP3L mRNA, set 1 = 0.151.
After knock-down of ZHX1 (zinc fingers and homeoboxes 1) the results were BNIP3L mRNA, set 1 = 0.0846.
With knock-down of IL6 (interleukin 6), the screen gave BNIP3L mRNA, set 1 = 0.104.
With knock-down of ST3GAL4 (ST3 beta-galactoside alpha-2,3-sialyltransferase 4), the screen gave BNIP3L mRNA, set 1 = 0.309.
GRIN2A (glutamate ionotropic receptor NMDA type subunit 2A) showed BNIP3L mRNA, set 1 = 0.0885.
HRAS (HRas proto-oncogene, GTPase) gave BNIP3L mRNA, set 1 = 0.0788.
Knock-down of SPRY1 (sprouty RTK signaling antagonist 1) came out at: BNIP3L mRNA, set 1 = 0.204.
Against RHOA (ras homolog family member A) the deposit lists BNIP3L mRNA, set 1 = 0.147.
After knock-down of SPZ1 (spermatogenic leucine zipper 1), the record shows BNIP3L mRNA, set 1 = 0.0599.
Depletion of MYLK2 (myosin light chain kinase 2) gave: BNIP3L mRNA, set 1 = 0.0783.
For HOXC6 (homeobox C6), the values are BNIP3L mRNA, set 1 = 0.0719.
For ZKSCAN1 (zinc finger with KRAB and SCAN domains 1), the values are BNIP3L mRNA, set 1 = 0.0828.
After knock-down of RASSF9 (Ras association domain family member 9), the screen gave BNIP3L mRNA, set 1 = 0.0898.
NDUFV1 (NADH:ubiquinone oxidoreductase core subunit V1) showed BNIP3L mRNA, set 1 = 0.0932.
Against TM2D2 (TM2 domain containing 2) the deposit lists BNIP3L mRNA, set 1 = 0.294.
Silencing of AVP (arginine vasopressin) resulted in: BNIP3L mRNA, set 1 = 0.123.
Against SLC71A3P, the values are BNIP3L mRNA, set 1 = 0.17.
After knock-down of PTPRT (protein tyrosine phosphatase receptor type T), the screen gave BNIP3L mRNA, set 1 = 0.1.
Knock-down of CARD9 (caspase recruitment domain family member 9) came out at: BNIP3L mRNA, set 1 = 0.117.

2 consecutive reagents from above, quoted:
MYLK2 (myosin light chain kinase 2) | BNIP3L mRNA, set 1: 0.0783
HOXC6 (homeobox C6) | BNIP3L mRNA, set 1: 0.0719
